# Among all 220,000 compounds or so, about 770 (0.35%) were called active. The shares of active, inactive and inconclusive entries below differ from those in the screen. Rule as the data show it: active = binding response below about 49% or above about 150%; inconclusive = no clear call, values can overlap the other calls; inactive = in between.
# Chains of the proteins cited; added tags and fusions are not shown.
# UniProt P09471, whole entry, looked up: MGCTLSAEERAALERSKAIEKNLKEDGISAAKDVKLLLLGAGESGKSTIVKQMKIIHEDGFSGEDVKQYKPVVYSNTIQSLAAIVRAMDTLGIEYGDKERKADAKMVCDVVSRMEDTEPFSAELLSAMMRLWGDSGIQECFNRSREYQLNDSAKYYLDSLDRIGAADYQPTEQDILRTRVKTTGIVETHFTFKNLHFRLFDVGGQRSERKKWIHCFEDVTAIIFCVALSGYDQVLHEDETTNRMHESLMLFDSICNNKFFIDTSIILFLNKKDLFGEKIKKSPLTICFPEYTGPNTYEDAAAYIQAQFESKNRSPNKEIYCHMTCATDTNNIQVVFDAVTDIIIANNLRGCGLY
# Target: Guanine nucleotide-binding protein G(o) subunit alpha (Homo sapiens) (UniProt P09471)
# Assay: RGS7-Galphao binding modulators, primary screen, biochemical, multiplexed bead flow cytometry (AID 1439);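 also: fluorescent Galphao held in activated GDP-AlF4 state binding bead-coupled RGS7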
# Conditions: at 10 µM, actives lie on both sides
row,SMILES,binding response (% of control)
1,COc1cccc(/C=N/NC(=O)c2ccc3nc[nH]c3c2)c1O,inconclusive: -82.7%
2,CC1=NNC(=O)C1C(c1cccc(O)c1)C(C#N)C#N (configuration not stated),inconclusive: 90.4%
3,CCN(CC)c1ccc(S(=O)(=O)N2CCOCC2)cc1NC(=O)CSc1n[nH]c(N)n1,inconclusive: 80.1%
4,O=C1[C@@H]2CSCN2C(=O)CN1Cc1ccc(F)cc1,inconclusive: 95.7%
5,Cc1cccc(NC(=O)c2cc([N+](=O)[O-])ccc2N2CCCCC2)n1,inconclusive: 127%
6,COC(=O)c1cn(NC(=O)Cn2nc([N+](=O)[O-])c(Br)c2C)c(=O)c2ccccc12,inconclusive: 106%
7,O=C(CN1C(=O)C2CC=CCC2C1=O)Nc1ccc(S(=O)(=O)Nc2ncccn2)cc1 (configuration not stated),inconclusive: 112%
8,O=C1c2cc(F)ccc2OC2(CCNCC2)C12CC(c1ccccc1)=NO2 (configuration not stated),inconclusive: 76%
9,CCOC(=O)c1c(C)[nH]c(C)c1C(=O)CSc1nc2ccccc2c(=O)n1-c1ccc(CC)cc1,inactive: 99.2%
10,O=c1c(Cl)c(NCCO)cnn1-c1cccc(Cl)c1,inconclusive: 86.3%
11,CCCc1cc(=O)oc2c(C)c(OCc3nn[nH]n3)ccc12,inconclusive: 100%
12,CCCc1cc(=O)[nH]c(SCC(=O)Nc2ncc(S(=O)(=O)c3ccc([N+](=O)[O-])cc3)s2)n1,inconclusive: 177%
13,COc1cc(C2CC(=O)Oc3c(C(CCN4CCCC(C)C4)c4ccc(N(C)C)cc4)c(OC)cc(OC)c32)cc(OC)c1OC (configuration not stated),inconclusive: 61.7%
14,CCOc1ccc(C(=O)NCCC2=CCCCC2)cc1OCC,inconclusive: 107%
15,COc1ccc(-n2ncc3c(N4CCN(Cc5ccccc5)CC4)ncnc32)cc1,inconclusive: 99.5%
16,CC(C)CNC(=O)CSc1nnc(-c2ccc(Cl)cc2)n1N,inconclusive: 109%
17,Cc1cccc(C)c1NC(=O)Nc1ccc(S(N)(=O)=O)cc1,inconclusive: 204%
18,OC(COCCC12CC3CC(CC(C3)C1)C2)CN1CCCC1 (configuration not stated),inconclusive: 108%
19,O=C(CSc1nnc2ccc(-c3ccccc3)nn12)NCC1CCCO1 (configuration not stated),inconclusive: 104%
20,C#C[C@]1(O)CC[C@H]2[C@@H]3CCC4=C(CCC(=O)C4)[C@H]3CC[C@@]21C,inactive: 99.8%
21,CC(=O)c1ccc(OCCOc2ccc(Cl)c3cccnc23)cc1,inconclusive: 61.5%
22,O=C(O)c1cccc(CN2C(=O)S/C(=C/c3ccccc3[N+](=O)[O-])C2=O)c1,inconclusive: 93.6%
23,COC(=O)[C@H]1C2CCC(C(=O)OC)(CC2)[C@H]1C(=O)OC,inactive: 104%

row,SMILES,binding response (% of control)
1,CNC(=O)c1cn(-c2ccc(Cl)cc2)c(=O)c2ccccc12,inconclusive: 98.1%
2,CCCN1C(=O)/C(=C/c2ccc(N3CCOCC3)cc2)NC1=S,inactive: 97%
3,c1ccc(-c2c[n+]3c(n2-c2ccccc2)CCC3)cc1,inconclusive: 80.5%
4,C=C(C)C(=O)Nc1ccc(NC(C)C)cc1,inconclusive: 102%
5,COc1ccc(CCN2C(=O)N(c3ccc(OC)cc3)C(=O)C2CC(=O)Nc2ccc(OC)cc2)cc1 (configuration not stated),inconclusive: 81.6%
6,O=C(/C=C/c1ccccc1Cl)N(Cc1cccs1)C1CCS(=O)(=O)C1 (configuration not stated),inconclusive: 93.2%
7,C/C(=N\NC(=S)NC(C)C)c1ccccc1,inconclusive: 79.9%
8,COC(=O)c1cc(NS(=O)(=O)c2ccc(NC(C)=O)cc2)ccc1Cl,inconclusive: 124%
9,CCOc1ccc(NC(=S)N(C)C)cc1,inconclusive: 108%
10,CCNC(=S)NNc1ccccc1,inconclusive: 57.9%
11,CC(C)(C)CC(C)(C)NC(=O)c1ccccc1,inconclusive: 115%
12,COC(=O)c1cnc(NNC(=O)c2ccc([N+](=O)[O-])cc2)nc1C(F)(F)F,inconclusive: 95.1%
13,O=C(O)c1cccc(-c2ccc(/C=N/n3cnc4sc5c(c4c3=O)CCCC5)o2)c1,inconclusive: 112%
14,CCNCC(=O)Nc1ccc(N2CCOCC2)cc1,inconclusive: 117%
15,COc1cccc2[nH]c3c(N4CCC5(CC4)OCCO5)ncnc3c12,inconclusive: 107%
16,Cc1cc(C)n2ncc(/C(N)=N/OC(=O)c3ccccc3F)c2n1,inconclusive: 70.9%
17,CCc1oc2ccccc2c1C(=O)c1cc(Br)c(O)c(Br)c1,inconclusive: 106%
18,O=C(COC(=O)c1ccc(CNS(=O)(=O)c2ccc(F)c(Cl)c2)cc1)NCC1CCCCC1,inactive: 99.5%
19,O=C(CCOc1ccccc1F)N1CCN(c2ccccc2O)CC1,inactive: 102%
20,CCOc1ccc(CC(=O)Nc2cccc(-c3ccc4nnc(C)n4n3)c2)cc1,inconclusive: 106%
21,O=C1CCC(C(=O)N2CCCC(C(=O)c3ccc4c5c(cccc35)CC4)C2)=NN1 (configuration not stated),inactive: 103%
22,C/C(=N/NC(=O)c1cccc(N2CCCC2=O)c1)c1ccncc1,inactive: 101%
23,O=C(O)c1ccccc1-n1cnnn1,inconclusive: 103%

# A different layout for part of the listing above:
row | SMILES | binding response (% of control)
5 | COc1ccc(CCN2C(=O)N(c3ccc(OC)cc3)C(=O)C2CC(=O)Nc2ccc(OC)cc2)cc1 (configuration not stated) | inconclusive: 81.6%
6 | O=C(/C=C/c1ccccc1Cl)N(Cc1cccs1)C1CCS(=O)(=O)C1 (configuration not stated) | inconclusive: 93.2%

# Continuation:

row,SMILES,binding response (% of control)
1,COc1ccc(C(CC(=O)O)NS(=O)(=O)c2ccc(C)cc2)cc1 (configuration not stated),inactive: 101%
2,CCOC(=O)N1CCN(S(=O)(=O)c2ccc(C)cc2)C1,inconclusive: 85.3%
3,CC1CCCC(C)N1CC(O)COCC1COc2ccccc2O1 (configuration not stated),inactive: 99.8%
4,O=C(COC(=O)CCN1C(=O)c2cccc([N+](=O)[O-])c2C1=O)NCc1ccccc1,inconclusive: 99.6%
5,COc1ccc(C(C)=O)cc1CSc1nnc(Nc2ccccc2)s1,inactive: 101%
6,O=C1c2ccccc2NC2(CCCC2)N1N=C1CCCC1,inconclusive: 102%
7,COc1ccc(-c2cnnc(N/N=C/C(C)=C/c3ccccc3)n2)cc1,inactive: 98.2%
8,CCOc1ccc(C(C)=O)cc1CSc1nnc(-c2ccncc2)n1CCOC,inconclusive: 108%
9,CC(=O)Nc1nc(COc2ccccc2)cs1,inactive: 99%
10,COCCNC(=S)N/N=C(\C)CCc1ccc2c(c1)OCO2,inconclusive: 92.4%
11,CN(C)C(CNC(=O)c1cc(S(=O)(=O)N(C)c2ccccc2)ccc1Cl)c1cccs1 (configuration not stated),inactive: 94.9%
12,CN1CCN(NC(=O)c2ccc(COc3ccccc3Br)o2)CC1,inconclusive: 93.6%
13,CCCc1cc(=O)[nH]c(SCC(=O)c2[nH]c(C)c(C(=O)OCC)c2C)n1,inactive: 101%
14,Cc1ccccc1NC(=O)C12CC3CCC1(C)C3(C)CO2 (configuration not stated),inconclusive: 133%
15,CCC(C)(C)NC(=O)CCCSc1nc2ccccc2[nH]1,inconclusive: 114%
16,Cc1cc(N=Nc2ccc(Cl)cc2)cc(CN2CCCC2)c1O,inconclusive: 145%
17,C/C(=N\NC(=O)CN1CCN(S(=O)(=O)c2ccc(C)cc2)CC1)c1ccc(O)cc1,inconclusive: 123%
18,O=C(N/N=C/c1ccco1)C1CC(=O)N(c2ccccc2)C1 (configuration not stated),inconclusive: 75.2%
19,CCOC(=O)C1=NNC(C(=O)c2ccccc2)C1c1ccc(C)cc1 (configuration not stated),inconclusive: 109%
20,CCCCCCC#Cc1ccc2c(c1)COc1c3ccccc3nn1-2,inconclusive: 84.3%
21,Cc1cc(C(=O)NCCc2ccc(Cl)cc2)n(-c2ccccc2)n1,inconclusive: 215%
22,CN1CCN(NC(=O)c2cccc(C(F)(F)F)c2)CC1,inconclusive: 102%
23,NC(=S)NC1CC2CC1C1C=CCC21 (configuration not stated),inconclusive: 83.1%

# Compounds shown so far that have bromine, in the order listed:
row,SMILES,binding response (% of control)
6,COC(=O)c1cn(NC(=O)Cn2nc([N+](=O)[O-])c(Br)c2C)c(=O)c2ccccc12,inconclusive: 106%
17,CCc1oc2ccccc2c1C(=O)c1cc(Br)c(O)c(Br)c1,inconclusive: 106%
12,CN1CCN(NC(=O)c2ccc(COc3ccccc3Br)o2)CC1,inconclusive: 93.6%

# Next part:

row,SMILES,binding response (% of control)
1,CCOC(=O)c1ccc(S(=O)(=O)NNC(=O)c2cccc(N(C)C)c2)cc1,inconclusive: 83.7%
2,Cc1ccc2c(Cl)c(C(=O)Nc3cccnc3)sc2c1,inactive: 100%
3,CC(C)OC(=O)/C(=C/c1ccco1)c1ccccc1,inconclusive: 86.9%
4,Cc1cc2c(c(=O)o1)C(c1ccc([N+](=O)[O-])o1)C(C#N)=C(N)O2 (configuration not stated),inconclusive: 96.7%
5,CCc1ccc(OCc2nnc(SCC(=O)N3CCN(c4ccccc4)CC3)o2)cc1,inactive: 100%
6,CN(C)C1=C(Cl)C(=O)N(c2ccc(Cl)c(Cl)c2)C1=O,inconclusive: 114%
7,CCOc1cccc(OCCNC2CCCC2)c1,inconclusive: 68.2%
8,Cc1ccc(NC(=O)CSc2nnc3ccccn23)cc1S(=O)(=O)N1CCOCC1,inconclusive: 102%
9,COc1ccc(NS(=O)(=O)c2ccc(N3CCOCC3)c(NC(=O)C(C)C)c2)cc1,inconclusive: 106%
10,NC(=O)c1ccc(NC(=O)CCNC(=O)c2ccco2)cc1,inconclusive: 130%
11,O=[N+]([O-])c1cccc(-c2cc(C(F)(F)F)n3nc(-c4ccccc4)cc3n2)c1,inconclusive: 86.1%
12,Cc1cccc(C(=O)Nc2ccccc2C(=O)NCc2cccnc2)c1,inconclusive: 95%
13,CC1(C)OC(=O)C(=NNc2ccccc2C(=O)O)C(=O)O1,inconclusive: 99%
14,Cc1[nH]cnc1CSCc1ccc(Cl)cc1,inactive: 134%
15,CCC1(C)Cc2ccccc2C(=O)N1 (configuration not stated),inconclusive: 68.2%
16,CC(=O)Nc1ccc(OCC(=O)NCc2ccc3c(c2)OCO3)cc1,inconclusive: 89.2%
17,COc1ccc(N(C)C(=O)c2cc3c(s2)-c2ccccc2S(=O)(=O)C3)cc1,inconclusive: 87.6%
18,Cn1cccc1CC(=O)NNC(=S)NC(=O)c1ccc(F)cc1,inconclusive: 74.8%
19,Nc1ccccc1SCc1c(Cl)cccc1Cl,inconclusive: 206%
20,CCCCOc1ccc(CSC(=N)N)cc1Cl,inconclusive: 128%
21,COc1ccc(Cl)cc1NC(=S)NCCCN1CCCC1=O,inconclusive: 93%
22,CC(=O)Nc1cccc(NC(=O)C(F)(F)F)c1,inconclusive: 102%
23,COc1ccccc1NC(=O)CCc1nc2ccccc2s1,inconclusive: 111%
